Screening data

Source: PubChem BioAssay AID504749 (NCATS, 2011).

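A panel of P. falciparum strains inside erythrocytes is exposed to compounds for three days, then a DNA-binding dye reports the amount of parasite DNA.
Each compound was titrated across a series from about 0.000037 to 29 µM.
The number is the fitted AC50, the concentration giving a half-maximal change in signal; a lower value means higher potency, whether the curve shows a decrease or an increase.
Calls follow the curve class and fit quality: every row here is inconclusive, covering signal-raising curves and weak, poorly fitted, partial or highest-dose-only inhibition curves.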

Values are in nM.
All entries here are filed as inconclusive.
Only part of the assay is shown, chiefly results filed as inconclusive.
A potency from a partial, single-point or poor curve is only a rough figure.
The first word of each remark tells which way the curve ran; it can be opposite to the aim of the assay.

Compound	condition	fitted potency (nM)	curve as filed
Cc1ccc(S(=O)(=O)N[C@@H](CCCCN)C(=O)CCl)cc1	GB4	15101	inhibitor, partial curve
Cc1ccc(S(=O)(=O)N[C@@H](CCCCN)C(=O)CCl)cc1	PC49	5623	inhibitor, single point
Cc1ccc(S(=O)(=O)N[C@@H](CCCCN)C(=O)CCl)cc1	ATS189	12589	inhibitor, single point
Cc1ccc(S(=O)(=O)N[C@@H](CCCCN)C(=O)CCl)cc1	N140	10000	inhibitor, partial curve
Cc1ccc(S(=O)(=O)N[C@@H](CCCCN)C(=O)CCl)cc1	CP286	10000	inhibitor, single point
Cc1ccc(S(=O)(=O)N[C@@H](CCCCN)C(=O)CCl)cc1	DIV14	6746	inhibitor, partial curve, poor fit
Cc1ccc(S(=O)(=O)N[C@@H](CCCCN)C(=O)CCl)cc1	ATS95	11220	inhibitor, partial curve
Cc1ccc(S(=O)(=O)N[C@@H](CCCCN)C(=O)CCl)cc1	TAB165	7943	inhibitor, partial curve
Cc1ccc(S(=O)(=O)N[C@@H](CCCCN)C(=O)CCl)cc1	TAB113	12589	inhibitor, single point
Cc1ccc(S(=O)(=O)N[C@@H](CCCCN)C(=O)CCl)cc1	DFO2036	10000	inhibitor, partial curve
Cc1ccc(S(=O)(=O)N[C@@H](CCCCN)C(=O)CCl)cc1	CP325	10690	inhibitor, partial curve, poor fit
CCCc1c(OCCCCc2nn[nH]n2)ccc(C(C)=O)c1O	W2	10690	inhibitor, partial curve, poor fit
CCCc1c(OCCCCc2nn[nH]n2)ccc(C(C)=O)c1O	CP260	10000	inhibitor, single point
CCCc1c(OCCCCc2nn[nH]n2)ccc(C(C)=O)c1O	CP247	7943	inhibitor, partial curve
CCCc1c(OCCCCc2nn[nH]n2)ccc(C(C)=O)c1O	PC49	17782	inhibitor, single point
CCCc1c(OCCCCc2nn[nH]n2)ccc(C(C)=O)c1O	CP315	4776	inhibitor, partial curve, poor fit
CO[C@@H]1C[C@H](O[C@H]2[C@@H](C)[C@H](O[C@@H]3O[C@@H](C)C[C@@H](N(C)C)[C@@H]3OC(C)=O)[C@H](C)C[C@]3(CO3)C(=O)[C@H](C)[C@H](OC(C)=O)[C@H](C)[C@H](C)OC(=O)[C@@H]2C)O[C@H](C)[C@@H]1OC(C)=O	CP262	8087	activator, single point
CO[C@@H]1C[C@H](O[C@H]2[C@@H](C)[C@H](O[C@@H]3O[C@@H](C)C[C@@H](N(C)C)[C@@H]3OC(C)=O)[C@H](C)C[C@]3(CO3)C(=O)[C@H](C)[C@H](OC(C)=O)[C@H](C)[C@H](C)OC(=O)[C@@H]2C)O[C@H](C)[C@@H]1OC(C)=O	CP329	1811	inhibitor, partial curve
O=c1[nH]cnc2c1ncn2C1OC(CO)C(O)C1O (centres unmarked)	parasite line A	2239	inhibitor, partial curve, poor fit
O=c1[nH]cnc2c1ncn2C1OC(CO)C(O)C1O (centres unmarked)	N140	3981	inhibitor, single point
O=c1[nH]cnc2c1ncn2C1OC(CO)C(O)C1O (centres unmarked)	CP192	19011	inhibitor, single point
O=c1[nH]cnc2c1ncn2C1OC(CO)C(O)C1O (centres unmarked)	CP315	2133	inhibitor, single point
O=C(N/N=C/c1ccc([N+](=O)[O-])o1)c1cc([N+](=O)[O-])cc([N+](=O)[O-])c1O	JCK	3981	inhibitor, partial curve, poor fit
O=C(N/N=C/c1ccc([N+](=O)[O-])o1)c1cc([N+](=O)[O-])cc([N+](=O)[O-])c1O	TAB165	125.9	inhibitor, full curve, poor fit
O=C(N/N=C/c1ccc([N+](=O)[O-])o1)c1cc([N+](=O)[O-])cc([N+](=O)[O-])c1O	CP252	8.9	inhibitor, full curve, poor fit
O=C(N/N=C/c1ccc([N+](=O)[O-])o1)c1cc([N+](=O)[O-])cc([N+](=O)[O-])c1O	W2	67.5	activator
O=C(N/N=C/c1ccc([N+](=O)[O-])o1)c1cc([N+](=O)[O-])cc([N+](=O)[O-])c1O	GB4	10.7	activator
O=C(N/N=C/c1ccc([N+](=O)[O-])o1)c1cc([N+](=O)[O-])cc([N+](=O)[O-])c1O	CP335	1510140	activator
O=C(N/N=C/c1ccc([N+](=O)[O-])o1)c1cc([N+](=O)[O-])cc([N+](=O)[O-])c1O	CP203	213.3	activator
O=C(N/N=C/c1ccc([N+](=O)[O-])o1)c1cc([N+](=O)[O-])cc([N+](=O)[O-])c1O	DIV30	2.7	activator
O=C(N/N=C/c1ccc([N+](=O)[O-])o1)c1cc([N+](=O)[O-])cc([N+](=O)[O-])c1O	CP268	5.4	activator
O=C(N/N=C/c1ccc([N+](=O)[O-])o1)c1cc([N+](=O)[O-])cc([N+](=O)[O-])c1O	CP215	16.9	activator
O=C(N/N=C/c1ccc([N+](=O)[O-])o1)c1cc([N+](=O)[O-])cc([N+](=O)[O-])c1O	CP297	13.5	activator
O=C(N/N=C/c1ccc([N+](=O)[O-])o1)c1cc([N+](=O)[O-])cc([N+](=O)[O-])c1O	CP329	15.1	activator
O=C(N/N=C/c1ccc([N+](=O)[O-])o1)c1cc([N+](=O)[O-])cc([N+](=O)[O-])c1O	CP194	60.1	activator
O=C(N/N=C/c1ccc([N+](=O)[O-])o1)c1cc([N+](=O)[O-])cc([N+](=O)[O-])c1O	CP291	3.4	activator
O=C(N/N=C/c1ccc([N+](=O)[O-])o1)c1cc([N+](=O)[O-])cc([N+](=O)[O-])c1O	CP266	21.3	activator

The first 4 entries again:

Compound,condition,fitted potency (nM),curve as filed
Cc1ccc(S(=O)(=O)N[C@@H](CCCCN)C(=O)CCl)cc1,GB4,15101,"inhibitor, partial curve"
Cc1ccc(S(=O)(=O)N[C@@H](CCCCN)C(=O)CCl)cc1,PC49,5623,"inhibitor, single point"
Cc1ccc(S(=O)(=O)N[C@@H](CCCCN)C(=O)CCl)cc1,ATS189,12589,"inhibitor, single point"
Cc1ccc(S(=O)(=O)N[C@@H](CCCCN)C(=O)CCl)cc1,N140,10000,"inhibitor, partial curve"